The target in the test is MARV Angola GPe (Marburg virus, strain Angola) (UniProt Q1PD50). The test is described as follows: ELISA on coated GPe.

By UniProt entry, the sequences of proteins in these tests, tags left out. Residues count along the entry.
UniProt Q1PD50, residues 19-648: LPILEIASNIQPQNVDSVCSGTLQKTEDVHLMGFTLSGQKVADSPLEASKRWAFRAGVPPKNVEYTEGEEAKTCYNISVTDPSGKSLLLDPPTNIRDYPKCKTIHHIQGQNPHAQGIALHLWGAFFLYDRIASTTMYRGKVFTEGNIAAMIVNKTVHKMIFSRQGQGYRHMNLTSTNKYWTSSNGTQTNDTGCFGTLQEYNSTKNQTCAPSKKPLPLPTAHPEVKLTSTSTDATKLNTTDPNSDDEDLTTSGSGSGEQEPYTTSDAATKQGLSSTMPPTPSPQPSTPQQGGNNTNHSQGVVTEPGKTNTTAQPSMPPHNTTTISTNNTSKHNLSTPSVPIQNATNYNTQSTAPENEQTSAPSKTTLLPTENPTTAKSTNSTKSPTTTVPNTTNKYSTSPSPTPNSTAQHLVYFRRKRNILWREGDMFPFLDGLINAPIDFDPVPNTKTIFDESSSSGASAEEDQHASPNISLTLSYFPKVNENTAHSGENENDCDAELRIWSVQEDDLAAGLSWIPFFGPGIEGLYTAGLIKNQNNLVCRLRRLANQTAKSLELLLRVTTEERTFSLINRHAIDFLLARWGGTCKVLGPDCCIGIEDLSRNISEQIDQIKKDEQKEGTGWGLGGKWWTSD

No constants are given. Whether binding was seen depends on the method and setting. Some results given as binding are weak or reduced against the parent protein; the word gives no strength.

B1: muCAN40G1 (antibody, V domains shown)
VH: EVQLQQSGPELVKPGASVKISCRTSGYTFTEYTIHWVKQSRGKSLEWIGGINPNHGGTLYNQKFKVKATLTVDKSSSTAYMELRSLTSEDSAVYYCARFTYDYWGQGTTLTVSS
VL: DIVLTQSPASLAVSLGQRASISCKASQSVDHDGDSYMNWYQQKPGQPPKLLIYATSNLESGIPARFSGSGSGTDFTLNIHPVEEEDAATYYCQQSYEVPLTFGAGTKLELK
Take B1: the binding result is listed as “binds”.

(Values after US20180030118A1.)
